Library screening results

Mtb growth Cornell: 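Whole-cell assay for inhibitors of Mycobacterium tuberculosis growth, labelled Cornell in the record; the read-out is not stated. The concentration is filed as 10 mM, unlikely as a test dose, so the dose is not known. The record gives no direction; compounds strong in two other growth screens of this library score well above the rest, so higher reads as stronger inhibition. Size under these conditions: about 53,000 compounds, about 900 of them at 50% or above in at least one test.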
Mtb heat-shock: 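Assay on Mycobacterium tuberculosis, filed only as a heat shock assay from Cornell; the read-out is not stated. The concentration is filed as 10 mM, unlikely as a test dose, so the dose is not known. The record gives no direction; compounds that gave an IC50 in retests scored well above the rest, so higher reads as stronger inhibition. Size under these conditions: about 69,000 compounds, about 930 of them at 50% or above in at least one test.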

Values are the deposited “Percent Effect”, in %. The record does not define 0% and 100%; most values in the screen are far below 50% and negative numbers occur (in some assays of this library far below -100). This is an unselected part of the compounds tested. A dash means the value is not listed here; it may have been measured.

compound | Mtb growth Cornell | Mtb heat-shock
CCc1nc(C2CCCN2CCn2cncn2)no1 (stereo not given) | 22.1% | 20.62%
CC(NC1(CNC(=O)CC(C)(C)C)CCOCC1)c1ccccc1 (stereo not given) | -19.74% | -5.157%
O=C(O)C(F)(F)F.[H][C@@]12CCN(C(=O)c3ccsc3)[C@]1([H])CCC(=O)N2Cc1cccc(C)n1 | 18.85% | -4.312%
Cc1cc(C(=O)NCc2ccnc(N3CCN(C)CC3)c2)c(C)s1 | -46.66% | 32.41%
O=C(c1ccc(S(=O)(=O)NCc2ccncc2)cc1)N1CCNCC1 | -15.09% | -4.976%
O=C1NCCC12CN(CC1CC1)CC21CCNCC1 (stereo not given) | - | -3.168%
O=S1(=O)COCCN1CCOc1ccc(F)cc1 | 9.193% | 17.82%
CCn1nc(C)cc1S(=O)(=O)N1CCC2(CC(=O)NC2=O)C1 (stereo not given) | -22.15% | -0.6838%
O=C(COCC1CCCO1)N(Cc1cccnc1)c1ccc(F)cc1 (stereo not given) | -5.43% | 14.39%
[H][C@@]12CN(c3cc(OC)ncn3)C[C@@H](C(=O)N3CCCC3)[C@]1([H])CCO2 | -33.02% | -35.64%
Cn1ccc(C(=O)N2CCCC(c3cc(O)n(C)n3)C2)n1 (stereo not given) | -57.42% | -7.619%
CC(=O)N1CCn2c(nnc2C2CCCCN2C(C)=O)C1 (stereo not given) | -17.96% | 13.44%
O=C(NCc1nnc2n1CCC2)c1cn(-c2ccccc2Br)nn1 | - | -2.801%
Cc1nc(Cn2c(=O)cnc3ccccc32)n(C)n1 | -8.38% | 21.29%
CC(C)c1nccn1-c1nccnc1C1CCCN1Cc1ccccc1 (stereo not given) | 16.59% | 15.42%
CS(=O)(=O)NC(=O)c1cc(Cl)c2c(c1)OCCCO2 | - | 13.21%
CN1CC(=O)N(c2ccsc2)CC12CCN(Cc1nccn1C)C2 (stereo not given) | 13.82% | 1.579%
Cc1cc(C)c(CNC(=O)N(C)Cc2sccc2C)c(=O)[nH]1 | 14.89% | 2.324%
Cc1cc(=O)n(CC(=O)NC(C)C)c(Nc2ccc(F)c(C)c2)n1 | -15.9% | -7.671%
COc1ccc(CN(Cc2cccnc2)CC2CCCO2)c(OC)c1.O=C(O)CC(O)(CC(=O)O)C(=O)O (stereo not given) | - | 5.923%
Cc1noc(C)c1CNS(=O)(=O)N(C)Cc1ccc(Cl)cc1 | - | 1.436%
CCS(=O)(=O)CCSc1ccc(Cl)cc1 | -11.67% | -0.3885%
CCN(CC)Cc1cc(=O)n2c(n1)CN(C(=O)c1ccc[nH]1)CCC2 | 16.61% | 10.74%
c1cc(-c2cscn2)cc(N2CCC(NCCc3cccs3)CC2)c1 | 60.71% | 24.48%
O=C(NC1CC(=O)N(C2CC2)C1)c1cccs1 (stereo not given) | -52.73% | -9.58%
O=C1CC(c2ccccc2F)c2c(n(C3CCCC3)[nH]c2=O)N1 (stereo not given) | 21.31% | -10.94%
CS(=O)(=O)N1CCOCC2(CN(Cc3nccs3)CCO2)C1.O=C(O)C(F)(F)F (stereo not given) | 24.9% | 6.758%
Cc1nc(C2CCCN(C(=O)c3sc(C)nc3C)C2)no1 (stereo not given) | -76.67% | -28.79%
O=C(O)C(F)(F)F.O=C(O)C(F)(F)F.[H][C@@]12C[C@@H](Oc3ccc(C)cc3)CN1CCN(C(=O)Cc1ccccn1)C2 | -12.23% | -38.93%
CCCc1ncc(CN(C)C2CCCN(CCc3ccccc3)C2)cn1 (stereo not given) | 15.92% | -6.266%
Cn1cnc2c1C(COCC1CC1)CN(C(=O)c1ccsc1)C2 (stereo not given) | -8.618% | 13.26%
Cc1ncn(CCNC(=O)Nc2ccccc2)c(=O)c1C | -33.42% | -26.34%
CC1COCCN1C(=O)Cc1cc(Cl)c2c(c1)OCCO2 (stereo not given) | -9.804% | 4.393%
[H][C@@]12CC[C@H](Oc3ccccc3)[C@]1([H])CN(C(=O)COCCOC)C2 | -5.684% | -10.86%
[H][C@@]12COC[C@@H](CC(=O)NCCOC)[C@]1([H])CN(C(=O)COC)C2 | -9.041% | 49.41%
CC(C)(C)c1nnc(CSc2ccccn2)o1 | - | 19%
O=C(CCn1cnnc1)N1CCCC(c2ncc[nH]2)C1 (stereo not given) | -0.4114% | 6.547%
Cc1ccc(C(C)N(C)Cc2nc3c(cnn3C)c(=O)[nH]2)c(C)c1 (stereo not given) | - | -15.24%
CSc1nccc(N2CCC3(CCCN(CC4CC4)C3)C2)n1 (stereo not given) | - | 16.61%
CC(=O)Nn1ccc2c(nnc3c(-c4ccccc4)cnn32)c1=O | 4.164% | -3.824%
O=c1c(S(=O)(=O)N2CCCCC2)cccn1Cc1cccnc1 | 14.69% | -10.35%
OC1(CNCCSc2ccccn2)CNCCOC1 (stereo not given) | 23.44% | -29.3%
COCCNC(=O)c1sccc1N(C)S(=O)(=O)c1ccc(Cl)cc1 | -9.05% | -30.25%
CCS(=O)(=O)N1CCN(Cc2cccnc2)c2nc(C)ccc2C1.O=C(O)C(F)(F)F.O=C(O)C(F)(F)F | 17.76% | -24.09%

5 of the entries, repeated:

compound	Mtb growth Cornell	Mtb heat-shock
Cn1ccc(C(=O)N2CCCC(c3cc(O)n(C)n3)C2)n1 (stereo not given)	-57.42%	-7.619%
O=c1c(S(=O)(=O)N2CCCCC2)cccn1Cc1cccnc1	14.69%	-10.35%
CS(=O)(=O)NC(=O)c1cc(Cl)c2c(c1)OCCCO2	-	13.21%
c1cc(-c2cscn2)cc(N2CCC(NCCc3cccs3)CC2)c1	60.71%	24.48%
CCN(CC)Cc1cc(=O)n2c(n1)CN(C(=O)c1ccc[nH]1)CCC2	16.61%	10.74%

Source: ChEMBL document CHEMBL3988442, “University of Dundee, Small-Polar-MMV Screening Library” (2021).